The values that follow come from the supplement of paper PMC10849652.

Chains of the proteins cited; added tags and fusions are not shown. Lines headed by an entry give the natural chain unless they say otherwise; changes in a name come on top.
UniProt Q8WV92, whole entry, looked up: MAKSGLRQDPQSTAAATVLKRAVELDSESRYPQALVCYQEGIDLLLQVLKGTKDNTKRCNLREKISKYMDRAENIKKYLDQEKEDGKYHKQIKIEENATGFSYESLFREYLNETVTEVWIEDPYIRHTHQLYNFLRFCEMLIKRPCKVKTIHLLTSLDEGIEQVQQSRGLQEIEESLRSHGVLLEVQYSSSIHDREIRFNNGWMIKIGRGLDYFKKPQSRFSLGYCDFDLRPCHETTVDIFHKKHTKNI
UniProt Q9Y5U8: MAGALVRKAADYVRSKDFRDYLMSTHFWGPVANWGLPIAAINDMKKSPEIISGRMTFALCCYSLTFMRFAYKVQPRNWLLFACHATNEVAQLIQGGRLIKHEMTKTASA
UniProt Q9Y4U1: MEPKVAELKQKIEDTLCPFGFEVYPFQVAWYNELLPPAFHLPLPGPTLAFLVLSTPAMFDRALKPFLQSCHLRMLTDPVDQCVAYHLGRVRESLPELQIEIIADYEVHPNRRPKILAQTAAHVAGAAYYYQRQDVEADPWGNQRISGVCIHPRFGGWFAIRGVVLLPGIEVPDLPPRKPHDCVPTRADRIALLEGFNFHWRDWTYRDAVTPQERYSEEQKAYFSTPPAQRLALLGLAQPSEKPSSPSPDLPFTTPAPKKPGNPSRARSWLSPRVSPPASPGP
UniProt Q8TDZ2: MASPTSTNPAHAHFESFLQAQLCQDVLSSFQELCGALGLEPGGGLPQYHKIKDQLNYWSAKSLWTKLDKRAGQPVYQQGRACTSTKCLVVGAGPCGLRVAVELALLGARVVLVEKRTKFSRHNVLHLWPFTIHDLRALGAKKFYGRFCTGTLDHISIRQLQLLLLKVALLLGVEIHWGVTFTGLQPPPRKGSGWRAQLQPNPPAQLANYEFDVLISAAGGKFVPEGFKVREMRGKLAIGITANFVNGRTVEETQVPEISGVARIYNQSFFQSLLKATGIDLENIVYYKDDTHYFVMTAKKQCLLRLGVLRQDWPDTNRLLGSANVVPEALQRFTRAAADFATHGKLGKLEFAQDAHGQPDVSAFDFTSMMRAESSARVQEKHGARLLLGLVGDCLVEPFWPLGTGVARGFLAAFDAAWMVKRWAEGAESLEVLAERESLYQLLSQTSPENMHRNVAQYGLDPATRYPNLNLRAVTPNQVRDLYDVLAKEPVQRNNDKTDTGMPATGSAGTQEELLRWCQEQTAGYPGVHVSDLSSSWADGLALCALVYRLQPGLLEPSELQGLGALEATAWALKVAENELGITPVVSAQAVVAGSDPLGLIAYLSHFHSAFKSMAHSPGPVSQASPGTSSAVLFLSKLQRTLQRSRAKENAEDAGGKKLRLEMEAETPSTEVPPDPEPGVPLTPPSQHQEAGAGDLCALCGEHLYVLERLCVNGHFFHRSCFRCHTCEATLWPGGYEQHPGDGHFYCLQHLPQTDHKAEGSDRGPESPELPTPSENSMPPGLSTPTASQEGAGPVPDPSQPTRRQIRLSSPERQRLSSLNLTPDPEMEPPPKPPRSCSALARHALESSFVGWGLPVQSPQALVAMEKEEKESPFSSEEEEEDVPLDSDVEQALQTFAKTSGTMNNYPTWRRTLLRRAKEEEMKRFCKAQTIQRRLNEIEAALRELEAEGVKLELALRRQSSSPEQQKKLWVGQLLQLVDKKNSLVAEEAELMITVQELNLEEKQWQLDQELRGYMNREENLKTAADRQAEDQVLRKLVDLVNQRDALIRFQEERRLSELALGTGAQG
UniProt Q86VX9: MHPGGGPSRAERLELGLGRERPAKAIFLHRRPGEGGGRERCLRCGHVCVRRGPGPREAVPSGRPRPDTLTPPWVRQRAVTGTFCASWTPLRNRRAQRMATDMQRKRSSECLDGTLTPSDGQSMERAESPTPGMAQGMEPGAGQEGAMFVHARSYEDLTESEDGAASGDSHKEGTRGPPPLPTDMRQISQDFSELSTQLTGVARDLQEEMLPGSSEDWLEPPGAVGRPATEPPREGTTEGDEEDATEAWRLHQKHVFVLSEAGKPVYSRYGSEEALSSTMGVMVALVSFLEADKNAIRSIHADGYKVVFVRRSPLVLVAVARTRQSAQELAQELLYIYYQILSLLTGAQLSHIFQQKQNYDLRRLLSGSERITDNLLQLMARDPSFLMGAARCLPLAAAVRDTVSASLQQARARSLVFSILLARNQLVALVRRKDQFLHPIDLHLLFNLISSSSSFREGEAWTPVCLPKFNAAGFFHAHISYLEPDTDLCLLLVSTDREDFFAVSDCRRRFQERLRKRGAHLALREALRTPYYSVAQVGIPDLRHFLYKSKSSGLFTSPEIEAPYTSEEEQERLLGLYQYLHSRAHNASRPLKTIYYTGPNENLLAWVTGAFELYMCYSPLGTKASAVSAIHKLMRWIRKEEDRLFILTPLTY
UniProt Q99583: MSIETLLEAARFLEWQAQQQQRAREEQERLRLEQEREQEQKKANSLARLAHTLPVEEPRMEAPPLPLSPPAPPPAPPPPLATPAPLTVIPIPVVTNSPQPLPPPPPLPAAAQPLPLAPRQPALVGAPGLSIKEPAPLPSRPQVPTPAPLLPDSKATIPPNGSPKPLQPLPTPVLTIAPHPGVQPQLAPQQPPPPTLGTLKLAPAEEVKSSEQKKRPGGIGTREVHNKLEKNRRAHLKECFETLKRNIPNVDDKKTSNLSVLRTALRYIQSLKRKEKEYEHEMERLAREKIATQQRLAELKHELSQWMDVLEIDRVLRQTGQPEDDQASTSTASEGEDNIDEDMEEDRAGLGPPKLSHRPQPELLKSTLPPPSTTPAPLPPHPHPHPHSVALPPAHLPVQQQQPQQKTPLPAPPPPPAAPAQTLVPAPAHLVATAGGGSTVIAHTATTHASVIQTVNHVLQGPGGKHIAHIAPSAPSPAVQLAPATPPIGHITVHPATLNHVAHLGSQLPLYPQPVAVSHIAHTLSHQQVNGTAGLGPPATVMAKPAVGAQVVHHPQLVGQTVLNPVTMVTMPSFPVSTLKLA
UniProt Q99549: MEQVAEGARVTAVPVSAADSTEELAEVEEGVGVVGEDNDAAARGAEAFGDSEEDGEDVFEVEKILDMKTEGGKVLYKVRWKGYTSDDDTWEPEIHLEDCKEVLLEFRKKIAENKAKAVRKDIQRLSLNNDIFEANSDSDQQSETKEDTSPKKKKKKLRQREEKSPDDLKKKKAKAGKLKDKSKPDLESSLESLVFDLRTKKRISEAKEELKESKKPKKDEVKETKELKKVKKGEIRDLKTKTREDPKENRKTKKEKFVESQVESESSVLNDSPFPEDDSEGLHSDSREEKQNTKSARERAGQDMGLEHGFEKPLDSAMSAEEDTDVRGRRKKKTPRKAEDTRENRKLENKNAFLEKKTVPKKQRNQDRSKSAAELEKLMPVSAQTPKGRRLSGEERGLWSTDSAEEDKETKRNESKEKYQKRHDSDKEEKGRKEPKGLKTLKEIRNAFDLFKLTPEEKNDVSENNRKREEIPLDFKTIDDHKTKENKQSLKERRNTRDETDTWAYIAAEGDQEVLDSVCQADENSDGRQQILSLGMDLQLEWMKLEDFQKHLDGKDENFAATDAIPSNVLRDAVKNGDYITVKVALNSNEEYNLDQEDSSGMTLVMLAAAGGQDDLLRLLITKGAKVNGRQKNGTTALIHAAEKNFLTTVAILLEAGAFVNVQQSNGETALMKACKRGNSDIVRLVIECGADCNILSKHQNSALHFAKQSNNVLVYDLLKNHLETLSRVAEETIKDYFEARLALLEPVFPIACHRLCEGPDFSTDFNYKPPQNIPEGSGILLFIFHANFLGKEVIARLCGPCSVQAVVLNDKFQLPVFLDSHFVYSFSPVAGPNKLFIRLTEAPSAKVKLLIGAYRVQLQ
UniProt Q9NQG6: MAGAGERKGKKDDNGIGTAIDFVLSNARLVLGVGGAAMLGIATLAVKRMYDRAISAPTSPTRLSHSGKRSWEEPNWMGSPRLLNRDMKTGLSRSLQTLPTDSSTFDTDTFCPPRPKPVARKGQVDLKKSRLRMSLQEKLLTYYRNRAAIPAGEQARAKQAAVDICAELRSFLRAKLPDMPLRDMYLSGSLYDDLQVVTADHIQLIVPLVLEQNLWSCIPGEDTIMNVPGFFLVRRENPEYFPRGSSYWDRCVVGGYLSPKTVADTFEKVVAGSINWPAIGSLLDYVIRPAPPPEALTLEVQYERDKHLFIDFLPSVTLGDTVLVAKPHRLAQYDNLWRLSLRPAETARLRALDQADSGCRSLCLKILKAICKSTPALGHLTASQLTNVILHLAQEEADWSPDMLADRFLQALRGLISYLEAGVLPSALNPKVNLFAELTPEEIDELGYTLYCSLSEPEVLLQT
UniProt Q99547: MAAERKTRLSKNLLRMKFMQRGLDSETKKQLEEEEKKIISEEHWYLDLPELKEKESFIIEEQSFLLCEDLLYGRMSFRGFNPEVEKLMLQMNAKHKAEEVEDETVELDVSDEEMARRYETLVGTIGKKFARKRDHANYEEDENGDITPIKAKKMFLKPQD
UniProt Q13015: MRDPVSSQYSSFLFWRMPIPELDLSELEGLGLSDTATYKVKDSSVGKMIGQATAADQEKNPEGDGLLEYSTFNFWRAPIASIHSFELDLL
UniProt Q86TA1: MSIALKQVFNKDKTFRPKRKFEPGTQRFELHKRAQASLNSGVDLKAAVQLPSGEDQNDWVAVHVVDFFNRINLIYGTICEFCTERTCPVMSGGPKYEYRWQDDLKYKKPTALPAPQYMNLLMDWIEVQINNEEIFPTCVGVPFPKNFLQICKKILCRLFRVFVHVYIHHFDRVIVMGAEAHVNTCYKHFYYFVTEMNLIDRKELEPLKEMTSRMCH
UniProt O95396: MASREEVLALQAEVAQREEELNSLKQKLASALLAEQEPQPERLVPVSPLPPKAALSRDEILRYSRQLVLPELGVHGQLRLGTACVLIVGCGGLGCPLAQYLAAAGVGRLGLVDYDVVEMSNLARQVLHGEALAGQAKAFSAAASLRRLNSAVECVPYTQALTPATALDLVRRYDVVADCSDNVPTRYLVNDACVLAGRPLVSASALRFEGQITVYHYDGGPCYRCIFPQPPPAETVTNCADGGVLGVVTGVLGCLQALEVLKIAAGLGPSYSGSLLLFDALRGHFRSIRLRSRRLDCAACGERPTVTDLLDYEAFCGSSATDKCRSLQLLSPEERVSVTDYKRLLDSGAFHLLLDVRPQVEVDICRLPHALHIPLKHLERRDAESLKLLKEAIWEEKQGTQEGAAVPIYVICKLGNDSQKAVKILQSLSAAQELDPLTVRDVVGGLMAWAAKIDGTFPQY
UniProt Q15773: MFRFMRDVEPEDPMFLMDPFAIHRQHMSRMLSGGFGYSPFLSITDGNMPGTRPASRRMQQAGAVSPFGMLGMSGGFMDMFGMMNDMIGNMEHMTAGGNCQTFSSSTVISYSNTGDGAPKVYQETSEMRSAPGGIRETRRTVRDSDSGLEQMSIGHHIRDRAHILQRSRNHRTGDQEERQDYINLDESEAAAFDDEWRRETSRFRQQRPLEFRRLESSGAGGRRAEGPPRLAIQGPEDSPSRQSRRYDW
UniProt Q8N5J2: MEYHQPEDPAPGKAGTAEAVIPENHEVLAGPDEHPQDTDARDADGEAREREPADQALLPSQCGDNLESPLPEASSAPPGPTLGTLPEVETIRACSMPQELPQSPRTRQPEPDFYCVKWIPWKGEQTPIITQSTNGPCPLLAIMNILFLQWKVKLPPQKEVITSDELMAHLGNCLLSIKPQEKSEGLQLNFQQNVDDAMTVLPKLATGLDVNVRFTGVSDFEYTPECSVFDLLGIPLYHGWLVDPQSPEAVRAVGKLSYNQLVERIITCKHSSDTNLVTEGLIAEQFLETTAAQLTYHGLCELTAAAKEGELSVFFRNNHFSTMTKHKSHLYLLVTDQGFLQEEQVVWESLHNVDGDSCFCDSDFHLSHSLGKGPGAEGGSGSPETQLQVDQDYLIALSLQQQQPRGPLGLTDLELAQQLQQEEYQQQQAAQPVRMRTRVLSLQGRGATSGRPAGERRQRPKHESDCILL
UniProt P26572: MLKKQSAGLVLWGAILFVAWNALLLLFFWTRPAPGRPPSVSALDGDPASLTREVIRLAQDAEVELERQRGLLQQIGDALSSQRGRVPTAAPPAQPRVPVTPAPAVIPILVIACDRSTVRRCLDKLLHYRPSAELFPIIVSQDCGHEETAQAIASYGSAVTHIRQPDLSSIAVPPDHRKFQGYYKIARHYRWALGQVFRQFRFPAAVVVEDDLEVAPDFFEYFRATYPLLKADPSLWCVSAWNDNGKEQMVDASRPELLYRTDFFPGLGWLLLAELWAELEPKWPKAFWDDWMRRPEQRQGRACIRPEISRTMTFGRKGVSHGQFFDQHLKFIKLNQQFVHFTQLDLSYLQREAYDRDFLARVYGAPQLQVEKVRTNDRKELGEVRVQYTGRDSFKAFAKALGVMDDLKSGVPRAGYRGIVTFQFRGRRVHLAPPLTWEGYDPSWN

Some of the results follow.

What all share (test): log2 fold change, soluble protein after heating vs DMSO (PISA); higher = thermal stabilisation; K562 lysate, 10 uM; active = over 0.2 and 3.5 SD of the protein, either way, in both replicates (recomputed)
Compound in assay [1]: NCC(=O)Nc1ccc(-n2nc(C(F)(F)F)cc2-c2ccc3c(ccc4ccccc43)c2)cc1
Summed up:
(§1)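 The values are log-two fold changes in thermal stability compared with solvent controls and come from duplicates. They were obtained by TMTpro 16plex LC-MS/MS, with channel sums equalised, on the supernatant after 21,000xg for 90 min. That supernatant came from crude K562 extract at 1 mg/mL protein treated with 10 μM compound for 30 min, heated for 3 min across 48°C-58°C, pooled and brought to 0.5% NP-40 at 4°C.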

Compound in the next assay: O=C(CCCCCCC(=O)Nc1ccccc1)NO [vorinostat]
Summed up:
as §1

Compound in another assay: O=C(O)c1ccc2c(c1)nc(Nc1cccc(Cl)c1)c1ccncc12 [silmitasertib]
An outline of the steps:
as §1

Compound in assay [2]: O=C1NC(=O)C(c2cnc3ccccn23)=C1c1cn2c3c(cc(F)cc13)CN(C(=O)N1CCCCC1)CC2
Summed up: as §1

Compound in a further assay: c1cn2cc(-c3ccc4cn[nH]c4c3)nc(Nc3ccc(N4CCOCC4)cc3)c2n1 [entospletinib]
Summed up: as §1

Consider MICAL2 (UniProt O94851), for which the log2 fold change in assay [1] was inactive: -0.083; with vorinostat, inactive: -0.174; with silmitasertib, inactive: 0.058; in assay [2], inactive: -0.004.

In the case of MRPL21 (UniProt Q7Z2W9), the log2 fold change in assay [1] was inactive: 0.067; in the assay with vorinostat, inactive: 0.005; in the assay with silmitasertib, inactive: -0.023; in assay [2] it was inactive: 0.002; with entospletinib it was inactive: 0.022.

On to MLXIP (UniProt Q9HAP2), for which the log2 fold change in assay [1] is inactive: 0.037; with vorinostat, active: -0.314; with silmitasertib, inactive: 0.026; in assay [2], inactive: 0.079; with entospletinib, inactive: 0.03.

Take MITD1 (UniProt Q8WV92): the log2 fold change in assay [1] was inactive: 0.01; with vorinostat, active: 0.255; in the assay with silmitasertib, inactive: -0.051; in assay [2], inactive: -0.079; with entospletinib, inactive: -0.024.

In the case of MPC1 (UniProt Q9Y5U8), the log2 fold change in assay [1] was inactive: 0.096; with vorinostat, inactive: 0.051; in the assay with silmitasertib, inactive: 0.094; in assay [2], inactive: -0.02; with entospletinib, inactive: 0.051.

On to MMACHC (UniProt Q9Y4U1), for which the log2 fold change in assay [1] is inactive: 0.012.

Turning to MICAL1 isoform 4 (UniProt Q8TDZ2), the log2 fold change in assay [1] is inactive: 0.011; in the assay with vorinostat, inactive: 0.04; in the assay with silmitasertib, inactive: -0.051; in assay [2], inactive: 0.064; with entospletinib, inactive: 0.05.

MON1A (UniProt Q86VX9): the log2 fold change was inactive: 0.074 in assay [1]; inactive: -0.138 with vorinostat; inactive: 0.05 with silmitasertib; inactive: 0.022 in assay [2]; inactive: 0.053 with entospletinib.

In the case of MIA3 (UniProt Q5JRA6), the log2 fold change in assay [1] was inactive: 0.008; with vorinostat, inactive: -0.176; in the assay with silmitasertib, inactive: -0.021; in assay [2], inactive: -0.023; with entospletinib, inactive: -0.032.

As to MNT (UniProt Q99583), the log2 fold change in assay [1] was inactive: 0.053; in the assay with vorinostat it was inactive: -0.039; with silmitasertib it was inactive: -0.105; in assay [2], inactive: 0.066; with entospletinib, inactive: -0.015.

In the case of MPHOSPH8 (UniProt Q99549), the log2 fold change in assay [1] is inactive: -0.025; in the assay with vorinostat, inactive: -0.294; with silmitasertib it was inactive: -0.025; in assay [2] it was inactive: 0.044; in the assay with entospletinib it was inactive: 0.067.

As for MIEF1 (UniProt Q9NQG6), the log2 fold change was inactive: -0.006 in assay [1]; inactive: 0.058 in the assay with vorinostat; inactive: 0.024 with silmitasertib; inactive: -0.028 in assay [2]; inactive: -0.024 with entospletinib.

As to MINDY3 (UniProt Q9H8M7), the log2 fold change in assay [1] was inactive: -0.032; in the assay with vorinostat, inactive: -0.004; with silmitasertib, inactive: -0.006; in assay [2], inactive: -0.012; with entospletinib, inactive: 0.039.

Turning to MPHOSPH6 (UniProt Q99547), the log2 fold change in assay [1] is inactive: -0.009; in the assay with vorinostat it was inactive: 0.09; in the assay with silmitasertib, inactive: -0.027; in assay [2], inactive: 0.013; with entospletinib, inactive: 0.002.

On to MON1B (UniProt Q7L1V2), for which the log2 fold change is inactive: 0.013 in assay [1]; inactive: -0.103 in the assay with vorinostat; inactive: 0.06 with silmitasertib; inactive: 0.006 in assay [2]; inactive: 0.047 in the assay with entospletinib.

Take MLLT11 (UniProt Q13015): the log2 fold change in assay [1] is inactive: 0.08; with vorinostat, inactive: 0.104; with silmitasertib, inactive: -0.203; in assay [2] it was inactive: -0.016; with entospletinib, inactive: 0.034.

As to MOB3B (UniProt Q86TA1), the log2 fold change is inactive: 0.086 in assay [1]; inactive: -0.093 with vorinostat; inactive: -0.024 with silmitasertib; inactive: -0.036 in assay [2]; inactive: -0.086 with entospletinib.

As to MOCS3 (UniProt O95396), the log2 fold change in assay [1] was inactive: 0.062; in the assay with vorinostat it was active: -0.458; with silmitasertib, inactive: -0.012; in assay [2], inactive: 0.053; with entospletinib, inactive: 0.035.

With MINK1 (UniProt Q8N4C8), the log2 fold change in assay [1] is inactive: -0.02; with vorinostat it was inactive: -0.205; with silmitasertib, inactive: -0.109; in assay [2] it was inactive: 0.043; with entospletinib, inactive: 0.182.

For MRPL10 isoform 2 (UniProt Q7Z7H8), the log2 fold change in assay [1] was inactive: 0.005; in the assay with vorinostat, inactive: 0.035; with silmitasertib, inactive: -0.027; in assay [2], inactive: -0.027; in the assay with entospletinib, inactive: -0.027.

Take MLF2 (UniProt Q15773): the log2 fold change in assay [1] was inactive: 0.021; in the assay with vorinostat, inactive: -0.12; with silmitasertib, inactive: 0.02; in assay [2], inactive: -0.061; with entospletinib, inactive: -0.05.

In the case of MINDY1 isoform 3 (UniProt Q8N5J2), the log2 fold change in assay [1] was inactive: -0.097; with vorinostat it was inactive: -0.186; with silmitasertib, inactive: 0.144; in assay [2], inactive: 0.166; with entospletinib, inactive: -0.052.

For the target MPI (UniProt P34949), the log2 fold change in assay [1] is inactive: 0.013; with vorinostat, inactive: 0.049; with silmitasertib, inactive: -0.047; in assay [2], inactive: -0.007; in the assay with entospletinib, inactive: -0.017.

Regarding MOGS (UniProt Q13724), the log2 fold change in assay [1] is inactive: -0.011; with vorinostat, inactive: 0.094; in the assay with silmitasertib it was inactive: -0.005; in assay [2] it was inactive: -0.011; with entospletinib, inactive: -0.016.

Consider MGAT1 (UniProt P26572), for which the log2 fold change in assay [1] is inactive: 0.041; with vorinostat, inactive: 0.112; with silmitasertib, inactive: -0.089; in assay [2] it was inactive: 0.033; with entospletinib it was inactive: -0.112.
